Test results from PubChem BioAssay AID248 (DTP/NCI, 2004).
The list is a part of this screen's results and no random one: it gathers tests that were run many times, whatever their T/C, doses with no T/C, and many T/C values between a quarter and a half above the control. Other doses and runs of a compound stand elsewhere. T/C gives the treated animals as a percentage of the vehicle group. Some doses have a count of surviving animals in place of a T/C: the source holds a T/C of zero for them, seemingly a mark for toxic or unscored doses. Some survivor counts are full or nearly so, which does not show that the dose was tolerated: survival well below the control is almost never listed, so the zero probably covers shortened survival too. Survivors were counted at the toxicity check, usually on the fifth day, unless a day is given; later deaths do not show. Schedule codes are those of the source, read here as Q, the interval in days (D) or hours (H), X, the number of doses. Some entries were tested several times; the results are listed from low to high. For survival time, the PubChem record calls one and a half times the control and up active, and a quarter to a half above the control has no call in these data; cut-offs in other NCI protocols can differ. Signs of the kind (2×) count equal records among those shown. Some T/C values are followed by the survivors on the day toxicity was checked, most often the fifth; where none is given, no animal had died by that day.

Tested on: L1210 leukemia ip in BDF1 mice, survival T/C
Assay: NCI In Vivo Anticancer Drug Screen. Data for tumor model L1210 Leukemia (intraperitoneal) in B6D2F1 (BDF1) mice
Details: T/C endpoint: mean survival time, higher T/C = longer survival
[1] = dose: 100.0 mg/kg/injection, schedule: Q01DX001 (ip), vehicle: saline
[2] = dose: 200.0 mg/kg/injection, schedule: Q01DX001 (ip), vehicle: saline
[3] = dose: 400.0 mg/kg/injection, schedule: Q01DX001 (ip), vehicle: saline
[4] = dose: 400.0 mg/kg/injection, schedule: Q01DX009 (ip), vehicle: saline
[5] = dose: 200.0 mg/kg/injection, schedule: Q01DX009 (ip), vehicle: saline
[6] = dose: 200.0 mg/kg/injection, schedule: Q04DX003 (ip), vehicle: saline
[7] = dose: 400.0 mg/kg/injection, schedule: Q04DX003 (ip), vehicle: saline
[8] = dose: 200.0 mg/kg/injection, schedule: Q04DX003 (ip), vehicle: saline with Tween-80
[9] = dose: 400.0 mg/kg/injection, schedule: Q04DX003 (ip), vehicle: saline with Tween-80
[10] = dose: 200.0 mg/kg/injection, schedule: Q01DX009 (ip), vehicle: saline with Tween-80
[11] = dose: 200.0 mg/kg/injection, schedule: Q01DX001 (ip), vehicle: carboxymethylcellulose (CMC)
[12] = dose: 400.0 mg/kg/injection, schedule: Q01DX001 (ip), vehicle: carboxymethylcellulose (CMC)
[13] = dose: 50.0 mg/kg/injection, schedule: Q01DX009 (ip), vehicle: saline with Tween-80
[14] = dose: 100.0 mg/kg/injection, schedule: Q01DX009 (ip), vehicle: saline with Tween-80
[15] = dose: 400.0 mg/kg/injection, schedule: Q01DX009 (ip), vehicle: Klucel (hydroxypropylcellulose) (HPC)
[16] = dose: 100.0 mg/kg/injection, schedule: Q04DX003 (ip), vehicle: Klucel (hydroxypropylcellulose) (HPC)
[17] = dose: 200.0 mg/kg/injection, schedule: Q04DX003 (ip), vehicle: Klucel (hydroxypropylcellulose) (HPC)
[18] = dose: 400.0 mg/kg/injection, schedule: Q04DX003 (ip), vehicle: Klucel (hydroxypropylcellulose) (HPC)

C=Cc1nc2ccccc2[nH]1 (tested in a mixture with another compound)
survivor count (dose: 40.0 mg/kg/injection, schedule: Q01DX001 (ip), vehicle: saline): 3 of 6
survivor count [1]: 0 of 6
survivor count [2]: 0 of 6
survivor count [3]: 0 of 6

CC(NC(=O)C1CC2c3cccc4[nH]cc(c34)CC2N(C)C1)C(C)(C)C (stereo unspecified)
survivor count (dose: 100.0 mg/kg/injection, schedule: Q01DX001 (ip), vehicle: Klucel (hydroxypropylcellulose) (HPC)): 2 of 6
survivor count (dose: 200.0 mg/kg/injection, schedule: Q01DX001 (ip), vehicle: Klucel (hydroxypropylcellulose) (HPC)): 1 of 6
survivor count (dose: 400.0 mg/kg/injection, schedule: Q01DX001 (ip), vehicle: Klucel (hydroxypropylcellulose) (HPC)): 0 of 6

OCC1OC(n2cncn2)C(O)C1O (stereo unspecified)
T/C (dose: 100.0 mg/kg/injection, schedule: Q01DX005 (ip), vehicle: saline): 134 % of control
T/C (dose: 200.0 mg/kg/injection, schedule: Q01DX005 (ip), vehicle: saline): 146 % of control

CC/C=C(CC)/C(=C/CC)CC
survivor count [4]: 1 of 6

CC[N+](C)(C)CCCOC(=O)C1C2CC3CC(C2)CC1C3 (stereo unspecified)
survivor count (dose: 100.0 mg/kg/injection, schedule: Q04DX002 (ip), vehicle: saline): 0 of 3 and 2 of 3
survivor count (dose: 200.0 mg/kg/injection, schedule: Q04DX002 (ip), vehicle: saline): 0 of 3
survivor count (dose: 400.0 mg/kg/injection, schedule: Q04DX002 (ip), vehicle: saline): 0 of 3

C=C(C)C(N)=O
survivor count [4]: 3 of 6

CCSSCC(NC(=O)OC(C)(C)C)C(=O)O (stereo unspecified)
survivor count (dose: 400.0 mg/kg/injection, schedule: Q01DX001 (ip), vehicle: other): 0 of 6

CCC(C)C(C(=O)OC1CCN(C)CC1)c1ccccc1 (stereo unspecified)
survivor count [5]: 1 of 6
survivor count [6]: 2 of 6
survivor count [7]: 0 of 6

CC(C)N(C(C)C)S(C)(=O)=O
survivor count [6]: 6 of 6
survivor count [7]: 3 of 6

CCCCCCCCCCCC(=O)[O][Pb]([CH2]C)([CH2]C)[CH2]C
survivor count (dose: 25.0 mg/kg/injection, schedule: Q04DX003 (ip), vehicle: saline with Tween-80): 5 of 6
survivor count [8]: 0 of 6
survivor count [9]: 0 of 6

CCN(CC)CCC#N
survivor count [3]: 0 of 4

CCC(C)(C)c1ccc(O)cc1
survivor count [10]: 6 of 6

COc1cc(C=Nc2cc(Cl)c(OC)c(Cl)c2)ccc1N(CCCl)CCCl
T/C (dose: 39.0 mg/kg/injection, schedule: Q01DX001 (ip), vehicle: carboxymethylcellulose (CMC)): 125 % of control
T/C (dose: 59.0 mg/kg/injection, schedule: Q01DX001 (ip), vehicle: carboxymethylcellulose (CMC)): 137 % of control
survivor count (dose: 60.0 mg/kg/injection, schedule: Q01DX009 (ip), vehicle: carboxymethylcellulose (CMC)): 5 of 6
T/C (dose: 66.0 mg/kg/injection, schedule: Q01DX001 (ip), vehicle: carboxymethylcellulose (CMC)): 133 % of control
T/C (dose: 89.0 mg/kg/injection, schedule: Q01DX001 (ip), vehicle: carboxymethylcellulose (CMC)): 130 and 148 % of control
survivor count (dose: 90.0 mg/kg/injection, schedule: Q01DX009 (ip), vehicle: carboxymethylcellulose (CMC)): 6 of 6
T/C (dose: 100.0 mg/kg/injection, schedule: Q01DX001 (ip), vehicle: carboxymethylcellulose (CMC), evaluated on day 30): 138 % of control
T/C (dose: 100.0 mg/kg/injection, schedule: Q01DX001 (ip), vehicle: carboxymethylcellulose (CMC), run until all animals had died): 134 % of control
T/C (dose: 133.0 mg/kg/injection, schedule: Q01DX001 (ip), vehicle: carboxymethylcellulose (CMC)): 139 % of control
T/C [11]: 130 and 142 % of control
T/C (dose: 338.0 mg/kg/injection, schedule: Q01DX001 (ip), vehicle: carboxymethylcellulose (CMC)): 134 % of control [5 of 6 alive]
T/C [12]: 134 % of control

Cc1ccc(-n2c(=S)[nH]c3ccc(C)cc3c2=O)cc1
survivor count [13]: 6 of 6
survivor count [14]: 6 of 6
survivor count [8]: 6 of 6
survivor count [9]: 6 of 6

Clc1ccccc1C(c1cccc2ccccc12)n1ccnc1 (stereo unspecified)
survivor count (dose: 100.0 mg/kg/injection, schedule: Q01DX009 (ip), vehicle: Klucel (hydroxypropylcellulose) (HPC)): 6 of 6

NCCc1cc(O)c(O)cc1O
survivor count [5]: 3 of 6
survivor count [4]: 3 of 6

O=CNC(CSC(=O)c1ccccc1)C(=O)O (stereo unspecified)
survivor count [15]: 3 of 6

FC(F)(F)c1ccc2c(c1)N(CCCN1CC[N+]3(CCOCC3)CC1)c1ccccc1S2
survivor count (dose: 25.0 mg/kg/injection, schedule: Q01DX009 (ip), vehicle: saline): 1 of 6
survivor count (dose: 50.0 mg/kg/injection, schedule: Q04DX003 (ip), vehicle: saline): 1 of 6
survivor count (dose: 100.0 mg/kg/injection, schedule: Q04DX003 (ip), vehicle: saline): 0 of 6

C[N+](C)(C)CCOC(=O)c1cccc(CBr)c1
survivor count [7]: 0 of 6

Cc1cc(O)[nH]c(=O)c1
survivor count [1]: 1 of 4
survivor count [2]: 0 of 4
survivor count [3]: 2 of 4

O=P(c1ccc(F)cc1)(c1ccc(F)cc1)c1ccc(F)cc1
survivor count (dose: 50.0 mg/kg/injection, schedule: Q01DX009 (ip), vehicle: Klucel (hydroxypropylcellulose) (HPC)): 5 of 6
survivor count [16]: 3 of 6
survivor count [17]: 6 of 6
survivor count [18]: 4 of 6

C[N+](C)(C)CCOc1ccc(Cl)cc1
survivor count [16]: 3 of 6
survivor count [17]: 0 of 6
survivor count [18]: 0 of 6

Cc1ccc(S(=O)(=O)OCCN(CCOS(=O)(=O)c2ccc(C)cc2)c2cccc(F)c2)cc1
T/C [11]: 110 (2×) and 136 % of control
survivor count [11]: 2 of 4

O=C(N/N=C\c1cc(Cl)cc(Cl)c1O)c1cccnc1
survivor count [15]: 3 of 6

CCCCOC(=O)c1ccc(OC(=O)Nc2ccc([N+](=O)[O-])cc2OC)cc1
survivor count (dose: 400.0 mg/kg/injection, schedule: Q01DX009 (ip), vehicle: other): 4 of 6

COc1cccc(NN)c1
survivor count (dose: 100.0 mg/kg/injection, schedule: Q01DX009 (ip), vehicle: saline): 6 of 6
survivor count [5]: 0 of 6
survivor count [6]: 5 of 6
survivor count [7]: 0 of 6

Cc1cc(C)nc(NC(=O)COc2ccc(Cl)cc2)c1
survivor count [18]: 3 of 6

S=c1[nH]c2[nH]cnc(=S)c2[nH]1
survivor count [3]: 3 of 6

O=C1OC2(c3ccc(O)cc3Oc3cc(O)ccc32)C2C3CCC(O3)C12 (stereo unspecified)
survivor count (dose: 400.0 mg/kg/injection, schedule: Q04DX002 (ip), vehicle: Klucel (hydroxypropylcellulose) (HPC)): 0 of 3

O=C1CCCCC1(O)C[N+](=O)[O-] (stereo unspecified)
survivor count (dose: 150.0 mg/kg/injection, schedule: Q01DX001 (ip), vehicle: carboxymethylcellulose (CMC)): 1 of 6
survivor count (dose: 300.0 mg/kg/injection, schedule: Q01DX001 (ip), vehicle: carboxymethylcellulose (CMC)): 1 of 6

CCC(=O)Oc1ccc(C(=O)O)cc1
survivor count [14]: 0 of 6
survivor count [10]: 0 of 6
survivor count (dose: 400.0 mg/kg/injection, schedule: Q01DX009 (ip), vehicle: saline with Tween-80): 0 of 6

O=C(O)/C=C/C(=O)c1ccccc1
survivor count [13]: 0 of 3
survivor count (dose: 100.0 mg/kg/injection, schedule: Q01DX001 (ip), vehicle: carboxymethylcellulose (CMC)): 2 of 4
survivor count [14]: 0 of 3
survivor count [11]: 0 of 4
survivor count [10]: 0 of 3
survivor count [12]: 0 of 4
